From publication PMC8444549
Results are given in words; binding and its absence hold for the method and conditions named. For some assays here: Binding can be weak; no strength is given. For some assays here: Binding seen in cells or lysates may run through a third protein. For some assays here: Where a sequence is shown, tags or fusion partners need not be part of it. Blank lines part the entries; values can stand above or below the molecule they belong to.

By UniProt entry, the sequences of proteins in these tests, tags left out. Where a name states a change or a piece, a line headed by the entry shows the natural chain unless it says otherwise. Residues count along the entry.
UniProt P01127, residues 82-190: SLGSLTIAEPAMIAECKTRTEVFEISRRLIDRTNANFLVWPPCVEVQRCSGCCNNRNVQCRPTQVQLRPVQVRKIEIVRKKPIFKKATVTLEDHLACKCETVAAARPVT
UniProt P27701: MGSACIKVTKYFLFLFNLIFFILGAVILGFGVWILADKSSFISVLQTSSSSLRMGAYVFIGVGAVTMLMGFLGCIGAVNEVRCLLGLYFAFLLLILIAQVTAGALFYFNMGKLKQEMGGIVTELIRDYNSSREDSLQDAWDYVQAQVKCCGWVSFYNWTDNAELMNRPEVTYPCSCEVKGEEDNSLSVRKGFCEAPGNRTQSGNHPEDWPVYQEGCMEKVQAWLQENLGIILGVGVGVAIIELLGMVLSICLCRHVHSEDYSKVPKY

Tests used:
[1] = target: recombinant human PDGF-BB (human) (UniProt P01127); assay: BLI; BLItz instrument (ForteBio), real-time binding, shift in nm; the legends call it surface plasmon resonance (BLItz system); who was immobilised is not stated; both purified
[2] = target: recombinant human VEGF-A (human); assay: as above
[3] = target: recombinant human VEGF-A (human); assay: condition: only cells treated with 2-bp (inhibitor of palmitoylation); co-IP; as a3, 293T cells treated with 2-bp (inhibition of palmitoylation); only the target purified
[4] = target: recombinant human VEGF-A (human); assay: co-IP; 293T cell lysates in IP buffer, anti-VEGF-A or anti-PDGF-BB antibody overnight at 4 °C, protein A/G sepharose, western blot; legend names rhVEGF-A and rhPDGF-BB; only the target purified

binding [1]: binds
Molecule: recombinant human KAI1 (from UniProt P27701)

binding [3]: no binding | binding [4]: binds
B3: KAI1-Myc (protein, UniProt P40237 1-266)
chain: MGAGCVKVTKYFLFLFNLLFFILGAVILGFGVWILADKNSFISVLQTSSSSLQVGAYVFIGVGAITIVMGFLGCIGAVNEVRCLLGLYFVFLLLILIAQVTVGVLFYFNADKLKKEMGNTVMDIIRNYTANATSSREEAWDYVQAQVKCCGWVSHYNWTENEELMGFTKTTYPCSCEKIKEEDNQLIVKKGFCEADNSTVSENNPEDWPVNTEGCMEKAQAWLQENFGILLGVCAGVAVIELLGLFLSICLCRYIHSEDYSKVPKY

More lines, now with the values behind:

B1: KAI1 peptide, wild-type sequence (peptide)
peptide: NRPEVTYPCSCEVKGEEDNS
binding [2]: binds

B2: KAI1 peptide, mutant sequence (peptide)
peptide: NRPEVTAPASCEVKGAAANS
binding [2]: no binding
